Results are given in words; binding and its absence hold for the method and conditions named. In cells and extracts the contact can be indirect. Some results given as binding are weak or reduced against the parent protein; the word gives no strength.
What was measured:
Assay in all cases: co-IP; 5 μg/ml Gal3-488 bound 30 min at 4 °C to cells expressing FLAG-SLC3A2 WTseq or variants, washed, then 10 μg/ml anti-SLC3A2 (MEM-108) 30 min at 4 °C; cells lysed, cleared lysate overnight at 4 °C with protein G-sepharose; SDS-PAGE, co-pulled down Gal3 quantified; only the binder purified
[1] = molecular target: FLAG-SLC3A2 N365D (human) (UniProt P08195)
[2] = molecular target: FLAG-SLC3A2 N381D (human) (UniProt P08195)
[3] = molecular target: FLAG-SLC3A2 WTseq (human) (UniProt P08195)

By UniProt entry, the sequences of proteins in these tests, tags left out. Where a name states a change or a piece, a line headed by the entry shows the natural chain unless it says otherwise. Chains listed by the source or under a name are the forms on record and can include a tag or linker. Residues count along the entry.
FLAG-SLC3A2 WTseq (P08195, residues 66-630): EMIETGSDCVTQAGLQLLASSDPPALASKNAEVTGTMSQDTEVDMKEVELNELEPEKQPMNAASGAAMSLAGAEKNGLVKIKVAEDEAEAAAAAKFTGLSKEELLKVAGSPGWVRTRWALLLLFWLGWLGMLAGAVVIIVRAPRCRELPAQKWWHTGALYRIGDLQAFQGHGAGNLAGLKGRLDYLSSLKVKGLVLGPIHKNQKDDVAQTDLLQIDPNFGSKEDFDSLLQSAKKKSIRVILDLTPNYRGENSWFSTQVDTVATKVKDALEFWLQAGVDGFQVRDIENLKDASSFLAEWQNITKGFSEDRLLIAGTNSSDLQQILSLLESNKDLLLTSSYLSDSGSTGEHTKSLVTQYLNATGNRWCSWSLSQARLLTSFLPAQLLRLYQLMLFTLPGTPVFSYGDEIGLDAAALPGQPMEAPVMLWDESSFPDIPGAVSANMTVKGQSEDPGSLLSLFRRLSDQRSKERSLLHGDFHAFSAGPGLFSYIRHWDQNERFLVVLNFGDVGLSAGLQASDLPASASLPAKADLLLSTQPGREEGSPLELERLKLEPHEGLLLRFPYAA
FLAG-SLC3A2 N365D (P08195, form named): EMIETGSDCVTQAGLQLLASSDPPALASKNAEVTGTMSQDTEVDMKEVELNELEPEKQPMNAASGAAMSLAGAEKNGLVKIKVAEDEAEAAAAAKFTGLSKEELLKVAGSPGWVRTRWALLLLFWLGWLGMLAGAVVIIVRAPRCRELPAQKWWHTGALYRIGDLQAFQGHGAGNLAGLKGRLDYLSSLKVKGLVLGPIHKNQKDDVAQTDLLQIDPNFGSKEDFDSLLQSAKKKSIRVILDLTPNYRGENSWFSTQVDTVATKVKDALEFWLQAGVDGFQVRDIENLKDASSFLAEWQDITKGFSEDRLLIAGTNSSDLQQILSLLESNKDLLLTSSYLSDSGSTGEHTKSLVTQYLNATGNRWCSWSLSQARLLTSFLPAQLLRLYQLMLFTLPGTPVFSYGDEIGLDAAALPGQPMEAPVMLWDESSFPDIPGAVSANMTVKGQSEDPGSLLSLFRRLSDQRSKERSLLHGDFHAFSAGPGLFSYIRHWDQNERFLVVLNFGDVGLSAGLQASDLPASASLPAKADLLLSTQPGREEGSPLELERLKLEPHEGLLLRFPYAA
FLAG-SLC3A2 N381D (P08195, form named): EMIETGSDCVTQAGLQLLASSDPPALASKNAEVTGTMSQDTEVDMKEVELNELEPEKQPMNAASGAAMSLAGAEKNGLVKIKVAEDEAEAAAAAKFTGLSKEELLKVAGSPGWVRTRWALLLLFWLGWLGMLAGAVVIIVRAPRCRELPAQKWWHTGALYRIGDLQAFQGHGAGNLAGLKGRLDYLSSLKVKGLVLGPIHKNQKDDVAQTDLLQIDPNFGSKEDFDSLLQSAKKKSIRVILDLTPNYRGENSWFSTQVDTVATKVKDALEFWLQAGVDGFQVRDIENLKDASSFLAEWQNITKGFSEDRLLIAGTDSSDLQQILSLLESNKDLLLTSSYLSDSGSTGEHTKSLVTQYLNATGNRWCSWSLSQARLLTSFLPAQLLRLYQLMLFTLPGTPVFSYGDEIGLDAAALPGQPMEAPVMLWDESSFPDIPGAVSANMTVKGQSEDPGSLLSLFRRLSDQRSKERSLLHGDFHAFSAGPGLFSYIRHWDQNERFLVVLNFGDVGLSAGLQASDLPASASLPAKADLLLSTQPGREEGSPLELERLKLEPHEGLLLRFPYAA
UniProt P17931: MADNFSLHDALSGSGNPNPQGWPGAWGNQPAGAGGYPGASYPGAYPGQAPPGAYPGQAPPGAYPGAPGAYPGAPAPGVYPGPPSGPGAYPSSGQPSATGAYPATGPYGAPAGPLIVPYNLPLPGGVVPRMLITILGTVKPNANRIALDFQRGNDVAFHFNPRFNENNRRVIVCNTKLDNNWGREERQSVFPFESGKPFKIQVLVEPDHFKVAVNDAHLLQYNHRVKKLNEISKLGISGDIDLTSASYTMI

Measured: binding

Gal3-488 recombinant protein (from UniProt P17931 1-250)
binds: all assays above
